In patent US12421242B2, “Substituted tetrahydropyrrolo-pyridinone compounds and their use in treating medical conditions” (Karuna Therapeutics, Inc., priority 2022, dated 2025) one finds EC50 data, which are given here for one molecule.

Amino acid sequences for entries named in this document (tags omitted).
UniProt P08173, whole entry: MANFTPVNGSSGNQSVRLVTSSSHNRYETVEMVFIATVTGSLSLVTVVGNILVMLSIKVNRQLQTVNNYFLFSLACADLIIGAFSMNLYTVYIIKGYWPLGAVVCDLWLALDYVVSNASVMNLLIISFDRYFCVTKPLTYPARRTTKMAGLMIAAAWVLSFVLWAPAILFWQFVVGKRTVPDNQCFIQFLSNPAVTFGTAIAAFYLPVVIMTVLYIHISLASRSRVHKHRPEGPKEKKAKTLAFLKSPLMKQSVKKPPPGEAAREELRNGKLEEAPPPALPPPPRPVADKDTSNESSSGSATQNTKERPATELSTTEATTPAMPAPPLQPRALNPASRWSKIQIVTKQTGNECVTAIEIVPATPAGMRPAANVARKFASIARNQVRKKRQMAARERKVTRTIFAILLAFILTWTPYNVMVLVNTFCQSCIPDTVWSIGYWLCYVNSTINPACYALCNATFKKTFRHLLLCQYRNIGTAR
UniProt P08485, whole entry: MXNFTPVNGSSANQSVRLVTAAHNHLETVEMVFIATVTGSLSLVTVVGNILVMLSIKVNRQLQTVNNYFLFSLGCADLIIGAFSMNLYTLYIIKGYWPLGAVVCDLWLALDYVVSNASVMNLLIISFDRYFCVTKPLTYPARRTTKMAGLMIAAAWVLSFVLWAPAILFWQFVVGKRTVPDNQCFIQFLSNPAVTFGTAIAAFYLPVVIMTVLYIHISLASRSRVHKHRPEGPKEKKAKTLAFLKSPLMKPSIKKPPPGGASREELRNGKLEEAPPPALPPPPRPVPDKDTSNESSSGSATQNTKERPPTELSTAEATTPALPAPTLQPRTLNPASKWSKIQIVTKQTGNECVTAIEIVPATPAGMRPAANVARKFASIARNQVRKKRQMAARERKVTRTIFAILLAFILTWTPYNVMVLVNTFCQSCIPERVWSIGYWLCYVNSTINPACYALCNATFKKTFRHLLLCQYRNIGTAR

The structures given here were assigned with low confidence; some may be wrong.

One test has as its target hM4 receptors (Homo sapiens, UniProt P08173). The test is described as follows: Human M4 PAM pERK assay. The following applies: read-out: Human M4 PAM pERK EC50, PAM mode. The method, then:
(§1) Chinese hamster ovary (CHO) cells expressing either hM4 or rM4 receptors were frozen in assay ready vials (5×10^6 cells/vial) after bulking-up in culture. The day before an assay, vial(s) were thawed and cells seeded in 384 well white proxiplates at 1000/well for hM4 cells and at 2000/well for rM4 cells, in 10 μL of growth media (Hams/F12 with glutamax and 10% FCS) and incubated overnight at 37° C./5% CO2.
(§2) On the following morning, the growth media was removed by ‘flicking out’ over a bin, patting the inverted plate onto tissue, and then replacing with 10 μL of wash media (Hams/F12 with glutamax and 8 mM HEPES, NB: serum free). Then, the wash media was removed in the same way and replaced with 8 μL/well of the serum free media. Plates were then re-incubated for a further 4 hours at 37° C./5% CO2. […]
(§3) After the 4-hour incubation in serum free media, a 4 μL aliquot of the 3× compound solution containing an EC20 of acetylcholine (10 nM final concentration) was added to the cell plate using a 384 well plate to plate transfer. […] Then, a final addition of 4 μL/well of antibody detection mix, containing both the Europium-Cryptate (donor) and d2 (acceptor) tagged detection components, was added followed by a further 2-hour incubation at RT, and then the plate was read using a TR-FRET (time resolved fluorescence resonance energy transfer) based protocol.

A further test concerns the target rM4 receptors (Rattus norvegicus, UniProt P08485). The test is described as follows: Rat M4 PAM pERK assay. The settings on record: read-out: Rat M4 PAM pERK EC50, PAM mode. The protocol:
as §1, §2, §3

On to `Cc1cc(=O)n(C)c2c1CN(C(=O)c1cnn(C)c1)C2`, for which the concentration giving a half-maximal response (EC50) on hM4 receptors was 100 to 500 nM; at rM4 receptors it was more than 2000 nM.
